According to publication PMC8922672:
No constants are given. Whether binding was seen depends on the method and setting. Binding seen in cells or lysates may run through a third protein. Some results given as binding are weak or reduced against the parent protein; the word gives no strength.

Protein sequences, listed by entry. Tags and fused reporters are not part of them.
UniProt P05412: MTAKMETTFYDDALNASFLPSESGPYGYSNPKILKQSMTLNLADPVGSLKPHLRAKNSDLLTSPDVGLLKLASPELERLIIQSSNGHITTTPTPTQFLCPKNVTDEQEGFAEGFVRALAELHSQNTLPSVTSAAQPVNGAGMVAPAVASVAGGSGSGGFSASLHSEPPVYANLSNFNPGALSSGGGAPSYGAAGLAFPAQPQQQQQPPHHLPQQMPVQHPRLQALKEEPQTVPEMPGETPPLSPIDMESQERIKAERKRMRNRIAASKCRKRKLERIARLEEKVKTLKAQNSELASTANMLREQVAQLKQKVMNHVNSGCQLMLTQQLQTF
UniProt P10070: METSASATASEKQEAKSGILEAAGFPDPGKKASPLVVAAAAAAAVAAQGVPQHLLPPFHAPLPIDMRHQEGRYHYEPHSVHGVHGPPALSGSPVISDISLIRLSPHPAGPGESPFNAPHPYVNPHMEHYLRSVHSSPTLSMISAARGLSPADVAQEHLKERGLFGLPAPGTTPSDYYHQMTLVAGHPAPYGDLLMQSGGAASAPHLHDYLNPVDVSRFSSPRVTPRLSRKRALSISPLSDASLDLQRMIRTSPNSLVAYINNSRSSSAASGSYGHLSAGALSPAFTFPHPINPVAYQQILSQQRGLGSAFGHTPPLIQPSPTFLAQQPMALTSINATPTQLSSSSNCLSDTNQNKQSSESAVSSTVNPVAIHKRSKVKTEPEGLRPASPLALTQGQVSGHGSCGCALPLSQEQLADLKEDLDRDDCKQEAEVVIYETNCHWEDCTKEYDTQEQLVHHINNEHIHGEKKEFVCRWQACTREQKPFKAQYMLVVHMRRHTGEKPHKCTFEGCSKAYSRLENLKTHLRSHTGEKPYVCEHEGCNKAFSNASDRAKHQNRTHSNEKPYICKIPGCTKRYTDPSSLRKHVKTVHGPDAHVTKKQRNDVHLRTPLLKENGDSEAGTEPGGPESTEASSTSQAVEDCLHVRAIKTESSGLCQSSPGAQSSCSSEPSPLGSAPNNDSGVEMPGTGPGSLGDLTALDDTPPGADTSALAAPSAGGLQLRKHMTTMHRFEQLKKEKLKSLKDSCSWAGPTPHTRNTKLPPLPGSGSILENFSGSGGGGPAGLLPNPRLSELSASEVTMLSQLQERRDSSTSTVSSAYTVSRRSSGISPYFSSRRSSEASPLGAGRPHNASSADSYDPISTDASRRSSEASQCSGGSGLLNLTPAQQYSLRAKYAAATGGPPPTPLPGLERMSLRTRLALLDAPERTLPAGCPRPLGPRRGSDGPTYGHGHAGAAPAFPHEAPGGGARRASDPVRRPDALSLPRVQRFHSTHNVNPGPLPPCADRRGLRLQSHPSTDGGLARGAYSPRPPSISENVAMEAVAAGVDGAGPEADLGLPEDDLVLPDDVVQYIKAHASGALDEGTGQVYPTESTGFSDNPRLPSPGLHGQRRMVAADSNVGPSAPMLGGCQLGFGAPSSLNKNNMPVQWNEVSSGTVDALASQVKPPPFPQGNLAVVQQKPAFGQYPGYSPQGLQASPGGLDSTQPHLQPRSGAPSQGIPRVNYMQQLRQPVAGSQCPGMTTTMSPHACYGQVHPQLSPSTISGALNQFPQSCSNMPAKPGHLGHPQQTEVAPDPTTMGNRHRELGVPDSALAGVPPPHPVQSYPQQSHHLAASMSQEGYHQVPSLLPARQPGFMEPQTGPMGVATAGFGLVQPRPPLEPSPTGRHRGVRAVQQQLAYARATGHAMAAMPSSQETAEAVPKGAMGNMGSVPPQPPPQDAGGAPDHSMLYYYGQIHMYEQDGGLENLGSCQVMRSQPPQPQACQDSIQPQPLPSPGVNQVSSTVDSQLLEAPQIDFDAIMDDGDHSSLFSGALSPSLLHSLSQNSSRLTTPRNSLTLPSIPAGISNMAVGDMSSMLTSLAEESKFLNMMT

Target: cJUN (UniProt P05412)
Assay: co-IP; co-immunoprecipitation of cJUN and GLI2; cells not given; interaction in the nucleus; TGFβ stimulates the interaction

With GLI2 (from UniProt P10070 1-1586) the binding was “binds”.
